In US7098248B2, “Beta-adrenergic blockade reversal of catabolism after severe burn” (Research Development Foundation, priority 2001, dated 2006):

What was measured:
[1] = test system: severely burned (>40% total body surface area) children; assay: Vital signs (hourly heart rate, blood pressure, temperature)
[2] = test system: severely burned (>40% total body surface area) children; assay: Serum glucose, potassium and hormone values; conditions: two weeks of oral propranolol, mean ± SEM

CC(C)NCC(O)COc1cccc2ccccc12 (stereo not shown) [Propranolol, propranolol]
Temperature between groups ([1]; result in words): not statistically different | Temperature, change from baseline ([1]; two weeks of oral propranolol, mean ± SEM): −0.5 ± 0.2 °C | Cortisol, change from baseline ([2]; serum): -3.1 ± 2.2 µg/dL | Growth hormone, change from baseline ([2]; serum): -1.1 ± 0.9 ng/mL | Insulin, change from baseline ([2]; serum): −29.4 ± 18.5 μlU/ml | Insulin-like growth factor-1, change from baseline ([2]; serum): 38 ± 13 ng/mL | Serum glucose, change from baseline [2]: -30 ± 13 mg/dL
